Laboratory results as given in publication PMC9596428.
These are yes or no findings as the source states them, for the method shown. In cells and extracts the contact can be indirect. Some results given as binding are weak or reduced against the parent protein; the word gives no strength.

Amino acid sequences for entries named in this document (tags omitted). A change or cut given only in a name is not applied to a line headed by its entry.
UniProt P11798: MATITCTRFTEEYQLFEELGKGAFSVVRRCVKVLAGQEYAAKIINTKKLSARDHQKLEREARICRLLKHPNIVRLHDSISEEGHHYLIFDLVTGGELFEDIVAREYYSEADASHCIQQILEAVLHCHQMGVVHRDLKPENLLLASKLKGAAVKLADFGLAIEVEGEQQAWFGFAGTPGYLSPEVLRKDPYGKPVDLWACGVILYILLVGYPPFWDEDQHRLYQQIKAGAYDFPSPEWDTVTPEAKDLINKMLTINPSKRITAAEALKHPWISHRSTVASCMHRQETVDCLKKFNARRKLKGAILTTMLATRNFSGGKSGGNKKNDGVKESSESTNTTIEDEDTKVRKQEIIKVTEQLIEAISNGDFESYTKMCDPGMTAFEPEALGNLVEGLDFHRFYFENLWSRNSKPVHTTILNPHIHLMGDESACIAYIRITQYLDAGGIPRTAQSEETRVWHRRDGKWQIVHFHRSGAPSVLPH

Legend:
[1] = molecular target: mVenus-tagged CaMKIIα I205K mutant holoenzyme (mouse) (UniProt P11798); assay: FRET or BRET; homo-FRET between mVenus tags on catalytic domains of the holoenzyme (steady-state anisotropy of in vitro binary-FRET), clarified HEK homogenate, room temperature, before and after activation with calcium-calmodulin
[2] = molecular target: mVenus-tagged CaMKIIα K42R mutant holoenzyme (mouse) (UniProt P11798); assay: as above

Row | binding [1] | binding [2] | Substance
1 | binds | – | mVenus-tagged CaMKIIα I205K mutant holoenzyme (from UniProt P11798-1 1-478)
2 | – | binds | mVenus-tagged CaMKIIα K42R mutant holoenzyme (from UniProt P11798-1 1-478)
